In patent publication US11904042B2, “Hair coloring composition and methods for its application and removal” (HFC Prestige International Holding Switzerland S.a.r.l, priority 2018, dated 2024):

Tests used:
[1] = S-19 / perylenes washing test: color (Lab) of colored hair strands after wash cycles
[2] = Example 2A: azo dye in multicomponent kit (Michael addition), color result and wash fastness; conditions: after 15 washes
Procedure: Pretreatment to Apply Cationic Polymer (PEI, Polyethylenimine) on the Hair Fiber Surface: • 1 ml of PEI solution (0.5% aqueous solution of PEI (MW: 75 kDa) is applied on the hair strand. • The hair strand is dried via blow-dryer, followed by further drying at 40° C. in the oven.
100 mg azo dye is suspended in 1 g THF, and 8.4 g Isododecane (2,2,4,6,6-pentamethylheptane) solution are added as solvent. Subsequently, 200 mg Silmer OH ACR DI-10 polymer (acrylate derivative) and 300 mg Silamine 2972 is added to the reaction mixture. The mixture is stirred at room temperature for 5 min.
1 g of the above prepared formulation is applied on a pre-treated hair tress (as described above) and the polymers are allowed to react to start forming a film immobilizing the added dye. After removing the excess of the formulation, the film forming reaction is completed as the hair tress is dried via a heat blower.

[3] = difference to PEI pretreatment, film former: acrylates, washing 5 times
[4] = difference to PEI pretreatment, film former: silicones, washing 5 times
[5] = film former: acrylates, washing 5 times
[6] = film former: silicones, washing 5 times
[7] = difference to value after PEI pretreatment, film former: acrylates, # wash 0
[8] = difference to value after PEI pretreatment, film former: acrylates, # wash 1
[9] = difference to value after PEI pretreatment, film former: acrylates, # wash 3
[10] = difference to value after PEI pretreatment, film former: acrylates, # wash 6
[11] = difference to value after PEI pretreatment, film former: acrylates, # wash 9
[12] = difference to value after PEI pretreatment, film former: acrylates, # wash 12
[13] = difference to value after PEI pretreatment, film former: acrylates, # wash 15
[14] = difference to value after PEI pretreatment, film former: silicones, # wash 0
[15] = difference to value after PEI pretreatment, film former: silicones, # wash 1
[16] = difference to value after PEI pretreatment, film former: silicones, # wash 3
[17] = difference to value after PEI pretreatment, film former: silicones, # wash 6
[18] = difference to value after PEI pretreatment, film former: silicones, # wash 9
[19] = difference to value after PEI pretreatment, film former: silicones, # wash 12
[20] = difference to value after PEI pretreatment, film former: silicones, # wash 15
[21] = difference to value after PEI pretreatment, no film former, # wash 0
[22] = difference to value after PEI pretreatment, no film former, # wash 5
[23] = film former: acrylates, # wash 0
[24] = film former: acrylates, # wash 1
[25] = film former: acrylates, # wash 3
[26] = film former: acrylates, # wash 6
[27] = film former: acrylates, # wash 9
[28] = film former: acrylates, # wash 12
[29] = film former: acrylates, # wash 15
[30] = film former: silicones, # wash 0
[31] = film former: silicones, # wash 1
[32] = film former: silicones, # wash 3
[33] = film former: silicones, # wash 6
[34] = film former: silicones, # wash 9
[35] = film former: silicones, # wash 12
[36] = film former: silicones, # wash 15

Compound: CCCCC(CCCC)N1C(=O)c2ccc3c4ccc5c6c(ccc(c7ccc(c2c37)C1=O)c64)C(=O)N(C(CCCC)CCCC)C5=O [S-9]
- ΔL [1, 3]: 26.82
- Δa [1, 3]: 49.56
- Δb [1, 3]: 21.33
- ΔL [1, 4]: 20.31
- Δa [1, 4]: 38.19
- Δb [1, 4]: 2.2
- L [1, 5]: 42.95
- a [1, 5]: 51.34
- b [1, 5]: 45.27
- L [1, 6]: 49.46
- a [1, 6]: 39.97
- b [1, 6]: 26.14

Compound: CCCCCCCCC(CCCCCCCC)N1C(=O)c2ccc3c4ccc5c6c(ccc(c7ccc(c2c37)C1=O)c64)C(=O)N(C(CCCCCCCC)CCCCCCCC)C5=O [S-17]
- ΔL [1, 3]: 31.32
- Δa [1, 3]: 57.7
- Δb [1, 3]: 33.43
- ΔL [1, 4]: 35.23
- Δa [1, 4]: 48.59
- Δb [1, 4]: 8.11
- L [1, 5]: 38.45
- a [1, 5]: 59.48
- b [1, 5]: 57.37
- L [1, 6]: 34.54
- a [1, 6]: 50.37
- b [1, 6]: 32.05

Compound: CCCCCCCCCC(CCCCCCCCC)N1C(=O)c2ccc3c4ccc5c6c(cc([N+](=O)[O-])c(c7ccc(c2c37)C1=O)c64)C(=O)N(C(CCCCCCCCC)CCCCCCCCC)C5=O [S-19-nitro]
- ΔL [1, 3]: 45.12
- Δa [1, 3]: 49.26
- Δb [1, 3]: 18.41
- ΔL [1, 4]: 44.69
- Δa [1, 4]: 46.01
- Δb [1, 4]: 19.14
- L [1, 5]: 24.65
- a [1, 5]: 51.04
- b [1, 5]: 42.35
- L [1, 6]: 25.08
- a [1, 6]: 47.79
- b [1, 6]: 43.08

Compound: CCCCCCCCCC(CCCCCCCCC)N1C(=O)c2ccc3c4ccc5c6c(ccc(c7ccc(c2c37)C1=O)c64)C(=O)N(C(CCCCCCCCC)CCCCCCCCC)C5=O [S-19]
- ΔL [1, 3]: 34.70
- Δa [1, 3]: 57.09
- Δb [1, 3]: 32.25
- ΔL [1, 4]: 27.71
- Δa [1, 4]: 45.57
- Δb [1, 4]: 1.95
- ΔL [1, 7]: 39.44
- Δa [1, 7]: 56.66
- Δb [1, 7]: 20.43
- ΔL [1, 8]: 35.99
- Δa [1, 8]: 49.41
- Δb [1, 8]: 28.95
- ΔL [1, 9]: 36.46
- Δa [1, 9]: 46.3
- Δb [1, 9]: 25.73
- ΔL [1, 10]: 33.24
- Δa [1, 10]: 50.49
- Δb [1, 10]: 31.52
- ΔL [1, 11]: 30.86
- Δa [1, 11]: 50.5
- Δb [1, 11]: 30.32
- ΔL [1, 12]: 31.24
- Δa [1, 12]: 51.79
- Δb [1, 12]: 31.35
- ΔL [1, 13]: 31.37
- Δa [1, 13]: 52.51
- Δb [1, 13]: 31.95
- ΔL [1, 14]: 37.38
- Δa [1, 14]: 48.67
- Δb [1, 14]: 27.55
- ΔL [1, 15]: 41.1
- Δa [1, 15]: 47.24
- Δb [1, 15]: 24.27
- ΔL [1, 16]: 29.2
- Δa [1, 16]: 40.07
- Δb [1, 16]: −6.68
- ΔL [1, 17]: 22.3
- Δa [1, 17]: 41.04
- Δb [1, 17]: 0.45
- ΔL [1, 18]: 26.38
- Δa [1, 18]: 36.62
- Δb [1, 18]: 1.4
- ΔL [1, 19]: 18.88
- Δa [1, 19]: 33.36
- Δb [1, 19]: −0.45
- ΔL [1, 20]: 19.74
- Δa [1, 20]: 29.6
- Δb [1, 20]: −4.66
- ΔL [1, 21]: 43.89
- Δa [1, 21]: 47.44
- Δb [1, 21]: 20.41
- ΔL [1, 22]: 15.56
- Δa [1, 22]: 25.79
- Δb [1, 22]: −1.43
- L [1, 23]: 30.33
- a [1, 23]: 58.44
- b [1, 23]: 44.37
- L [1, 24]: 33.78
- a [1, 24]: 51.19
- b [1, 24]: 52.89
- L [1, 25]: 33.31
- a [1, 25]: 48.08
- b [1, 25]: 49.67
- L [1, 26]: 36.53
- a [1, 26]: 52.27
- b [1, 26]: 55.46
- L [1, 27]: 38.91
- a [1, 27]: 52.28
- b [1, 27]: 54.26
- L [1, 28]: 38.53
- a [1, 28]: 53.57
- b [1, 28]: 55.29
- L [1, 29]: 38.40
- a [1, 29]: 54.29
- b [1, 29]: 55.89
- L [1, 5]: 35.07
- a [1, 5]: 58.87
- b [1, 5]: 56.19
- L [1, 30]: 32.39
- a [1, 30]: 50.45
- b [1, 30]: 51.49
- L [1, 31]: 28.67
- a [1, 31]: 49.02
- b [1, 31]: 48.21
- L [1, 32]: 40.57
- a [1, 32]: 41.85
- b [1, 32]: 17.26
- L [1, 33]: 47.47
- a [1, 33]: 42.82
- b [1, 33]: 24.39
- L [1, 34]: 43.39
- a [1, 34]: 38.40
- b [1, 34]: 25.34
- L [1, 35]: 50.89
- a [1, 35]: 35.14
- b [1, 35]: 23.49
- L [1, 36]: 50.03
- a [1, 36]: 31.38
- b [1, 36]: 19.28
- L [1, 6]: 42.06
- a [1, 6]: 47.35
- b [1, 6]: 25.89
- L ([1]; no film former, # wash 0): 25.88
- a ([1]; no film former, # wash 0): 49.22
- b ([1]; no film former, # wash 0): 44.35
- L ([1]; no film former, # wash 5): 54.21
- a ([1]; no film former, # wash 5): 27.57
- b ([1]; no film former, # wash 5): 22.51

Compound: CCN(CCO)c1ccc(/N=N/c2nc(N3CCN(C)CC3)c(C=C3C(=O)c4ccccc4C3=O)s2)cc1 [black azo, 2-[[2-[(E)-[4-[ethyl(2-hydroxyethyl)amino]phenyl]azo]-4-(4-methylpiperazin-1-yl)thiazol-5-yl]methylene]indane-1,3-dione]
- wash fastness observation [2]: moderate

Compound: CCN(CCO)c1ccc(/N=N/c2nc(Cl)c(C=C3C(=O)c4ccccc4C3=O)s2)cc1 [blue azo, 2-{[4-chloro-2-((E)-{4-[ethyl(2-hydroxyethyl)amino]phenyl}diazenyl)-1,3-thiazol-5-yl]methylidene}-1H-indene-1,3(2H)-dione]
- wash fastness observation [2]: very good
